Several values for one entry are separate records, joined by “and”; a condition that tells them apart may be missing. Equal entries are not always repeated. This continues a long series; more values of the same kind are listed elsewhere.
Assay: Clinical pharmacokinetics, 25 and 75 mg, compared to Adderall XR and Dexedrine Spansule
Conditions: human, individual subjects

## CC(Cc1ccccc1)NC(=O)C(N)CCCCN [L-lysine-d-amphetamine, 2,6-diaminohexanoic acid-(1-methyl-2-phenylethyl)-amide]
Oral 25 mg L-lysine-d-amphetamine, 0 h
  L-lysine-d-amphetamine intact conjugate concentration: 0 ng/mL
Oral 25 mg L-lysine-d-amphetamine, 0.5 h
  L-lysine-d-amphetamine intact conjugate concentration: 4.1 ng/mL and 0.0 ng/mL (3×) and 5.5 ng/mL and 10.0 ng/mL and 3.6 ng/mL and 9.2 ng/mL and 9.6 ng/mL and 8.9 ng/mL
Oral 25 mg L-lysine-d-amphetamine, 16 h
  L-lysine-d-amphetamine intact conjugate concentration: 0 ng/mL
Oral 25 mg L-lysine-d-amphetamine, 24 h
  L-lysine-d-amphetamine intact conjugate concentration: 0 ng/mL
Oral 25 mg L-lysine-d-amphetamine, 48 h
  L-lysine-d-amphetamine intact conjugate concentration: 0 ng/mL
Oral 25 mg L-lysine-d-amphetamine, 72 h
  L-lysine-d-amphetamine intact conjugate concentration: 0 ng/mL
Oral 75 mg L-lysine-d-amphetamine, 0 h
  L-lysine-d-amphetamine intact conjugate concentration: 0 ng/mL
Oral 75 mg L-lysine-d-amphetamine, 0.5 h
  L-lysine-d-amphetamine intact conjugate concentration: 10.4 ng/mL and 35.5 ng/mL and 22.6 ng/mL and 6.92 ng/mL and 10.3 ng/mL and 0 ng/mL and 9.21 ng/mL and 7.88 ng/mL and 14.5 ng/mL and 87.8 ng/mL
Oral 75 mg L-lysine-d-amphetamine, 1 h
  L-lysine-d-amphetamine intact conjugate concentration: 48 ng/mL and 80.1 ng/mL and 40.5 ng/mL and 29 ng/mL and 41.5 ng/mL and 21.2 ng/mL and 30.8 ng/mL and 23.4 ng/mL and 127 ng/mL and 88.9 ng/mL
Oral 75 mg L-lysine-d-amphetamine, 2 h
  L-lysine-d-amphetamine intact conjugate concentration: 8.87 ng/mL and 11.3 ng/mL and 5.53 ng/mL and 4.91 ng/mL and 9 ng/mL and 18.1 ng/mL and 5.62 ng/mL and 6.29 ng/mL and 12.1 ng/mL and 9.75 ng/mL
Oral 75 mg L-lysine-d-amphetamine, 3 h
  L-lysine-d-amphetamine intact conjugate concentration: 2.15 ng/mL and 1.73 ng/mL (2×) and 1.29 ng/mL and 1.76 ng/mL and 1.82 ng/mL and 10.6 ng/mL and 0 ng/mL and 2.31 ng/mL and 2.57 ng/mL
Oral 75 mg L-lysine-d-amphetamine, 4 h
  L-lysine-d-amphetamine intact conjugate concentration: 0 ng/mL (6×) and 1.09 ng/mL and 4.65 ng/mL and 1.53 ng/mL and 1.01 ng/mL
Oral 75 mg L-lysine-d-amphetamine, 5 h
  L-lysine-d-amphetamine intact conjugate concentration: 0 ng/mL
Oral 75 mg L-lysine-d-amphetamine, 6 h
  L-lysine-d-amphetamine intact conjugate concentration: 0 ng/mL
Oral 75 mg L-lysine-d-amphetamine, 7 h
  L-lysine-d-amphetamine intact conjugate concentration: 0 ng/mL
Oral 75 mg L-lysine-d-amphetamine, 8 h
  L-lysine-d-amphetamine intact conjugate concentration: 0 ng/mL
Oral 75 mg L-lysine-d-amphetamine, 10 h
  L-lysine-d-amphetamine intact conjugate concentration: 0 ng/mL
Oral 75 mg L-lysine-d-amphetamine, 12 h
  L-lysine-d-amphetamine intact conjugate concentration: 0 ng/mL
Oral 75 mg L-lysine-d-amphetamine, 16 h
  L-lysine-d-amphetamine intact conjugate concentration: 0 ng/mL
Oral 75 mg L-lysine-d-amphetamine, 24 h
  L-lysine-d-amphetamine intact conjugate concentration: 0 ng/mL
Oral 75 mg L-lysine-d-amphetamine, 48 h
  L-lysine-d-amphetamine intact conjugate concentration: 0 ng/mL
Oral 75 mg L-lysine-d-amphetamine, 72 h
  L-lysine-d-amphetamine intact conjugate concentration: 0 ng/mL

Reference: patent publication US20090181898A1, “ABUSE-RESISTANT A[…]” (SHIRE LLC, priority 2002, published 2009)
